For this test, the target named is GFP-Smad5 (UniProt Q99717). Briefly: affinity purification with mass spectrometry; Co-IP of GFP-Smad5 followed by mass spectrometry (IP/MS).

Protein sequences, listed by entry. Tags and fused reporters are not part of them.
UniProt Q99717: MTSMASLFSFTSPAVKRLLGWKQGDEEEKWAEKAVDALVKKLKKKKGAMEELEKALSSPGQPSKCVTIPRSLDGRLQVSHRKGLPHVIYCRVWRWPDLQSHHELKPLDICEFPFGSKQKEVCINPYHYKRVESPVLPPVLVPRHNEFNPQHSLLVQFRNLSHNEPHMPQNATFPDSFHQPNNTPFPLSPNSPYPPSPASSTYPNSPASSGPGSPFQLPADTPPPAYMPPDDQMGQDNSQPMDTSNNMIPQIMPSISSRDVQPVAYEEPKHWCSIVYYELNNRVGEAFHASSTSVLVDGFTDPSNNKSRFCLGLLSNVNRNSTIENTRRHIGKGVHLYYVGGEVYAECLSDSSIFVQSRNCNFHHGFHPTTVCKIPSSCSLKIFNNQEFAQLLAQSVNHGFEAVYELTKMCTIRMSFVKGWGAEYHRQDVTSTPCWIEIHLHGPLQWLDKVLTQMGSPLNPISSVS

Results are given in words; binding and its absence hold for the method and conditions named. Binding seen in cells or lysates may run through a third protein. A yes stands for co-enrichment or nearness to the bait. Other partners may have been found. Sequences can lack the tags named with a protein.

B1: hexokinase 1 (HK1) found by IP/MS with GFP-Smad5 (enzyme, UniProt P19367 1-917)
chain: MIAAQLLAYYFTELKDDQVKKIDKYLYAMRLSDETLIDIMTRFRKEMKNGLSRDFNPTATVKMLPTFVRSIPDGSEKGDFIALDLGGSSFRILRVQVNHEKNQNVHMESEVYDTPENIVHGSGSQLFDHVAECLGDFMEKRKIKDKKLPVGFTFSFPCQQSKIDEAILITWTKRFKASGVEGADVVKLLNKAIKKRGDYDANIVAVVNDTVGTMMTCGYDDQHCEVGLIIGTGTNACYMEELRHIDLVEGDEGRMCINTEWGAFGDDGSLEDIRTEFDREIDRGSLNPGKQLFEKMVSGMYLGELVRLILVKMAKEGLLFEGRITPELLTRGKFNTSDVSAIEKNKEGLHNAKEILTRLGVEPSDDDCVSVQHVCTIVSFRSANLVAATLGAILNRLRDNKGTPRLRTTVGVDGSLYKTHPQYSRRFHKTLRRLVPDSDVRFLLSESGSGKGAAMVTAVAYRLAEQHRQIEETLAHFHLTKDMLLEVKKRMRAEMELGLRKQTHNNAVVKMLPSFVRRTPDGTENGDFLALDLGGTNFRVLLVKIRSGKKRTVEMHNKIYAIPIEIMQGTGEELFDHIVSCISDFLDYMGIKGPRMPLGFTFSFPCQQTSLDAGILITWTKGFKATDCVGHDVVTLLRDAIKRREEFDLDVVAVVNDTVGTMMTCAYEEPTCEVGLIVGTGSNACYMEEMKNVEMVEGDQGQMCINMEWGAFGDNGCLDDIRTHYDRLVDEYSLNAGKQRYEKMISGMYLGEIVRNILIDFTKKGFLFRGQISETLKTRGIFETKFLSQIESDRLALLQVRAILQQLGLNSTCDDSILVKTVCGVVSRRAAQLCGAGMAAVVDKIRENRGLDRLNVTVGVDGTLYKLHPHFSRIMHQTVKELSPKCNVSFLLSEDGSGKGAALITAVGVRLRTEASS
For the molecule B1, the binding result is “binds”.

Values taken from paper PMC5587853.
